# The other results are listed elsewhere or left out.
# Tests used:
# Assay in all cases: glycan array binding signal (z-score within array); higher = stronger binding
# Conditions in all cases: glycan notation: IUPAC condensed, linker removed
# [1] = target: Gal(b1-3)GlcNAc(b1-6)[Gal(b1-3)]GalNAc
# Summary of the method: (§1)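 Arrays were curated from the Consortium for Functional Glycomics database, 3228 in total, and kept only where the protein sequence was available. Binding is expressed as a within-array Z-score. This score was averaged across arrays of the same protein sequence at different concentrations or buffers and across linkers, and negative values can be read as non-binding.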
# Gal(b1-3)GlcNAc6S = target: Gal(b1-3)GlcNAc6S
# Summary of the method: as §1
# [2] = target: Gal(b1-3)[Fuc(a1-4)]GlcNAc
# Summary of the method: as §1
# [3] = target: Gal(b1-3)[Fuc(a1-4)]GlcNAc(b1-2)Man
# Summary of the method: as §1
# [4] = target: Gal(b1-3)[Fuc(a1-4)]GlcNAc(b1-2)Man(a1-3)[Gal(b1-3)[Fuc(a1-4)]GlcNAc(b1-2)Man(a1-6)]Man(b1-4)GlcNAc(b1-4)[Fuc(a1-6)]GlcNAc
# Summary of the method: as §1
# [5] = target: Gal(b1-3)[Fuc(a1-4)]GlcNAc(b1-3)Gal(b1-3)[Fuc(a1-4)]GlcNAc
# Summary of the method: as §1
# [6] = target: Gal(b1-3)[Fuc(a1-4)]GlcNAc(b1-3)Gal(b1-4)[Fuc(a1-3)]GlcNAc
# Summary of the method: as §1
# [7] = target: Gal(b1-3)[Fuc(a1-4)]GlcNAc(b1-6)GalNAc
# Summary of the method: as §1
# [8] = target: Gal(b1-3)[GlcNAc(b1-6)]GalNAc
# Summary of the method: as §1
# [9] = target: Gal(b1-3)[Neu5Ac(a2-6)]GalNAc
# Summary of the method: as §1
# [10] = target: Gal(b1-3)[Neu5Ac(a2-6)]GlcNAc(b1-4)Gal(b1-4)Glc
# Summary of the method: as §1
# [11] = target: Gal(b1-3)[Neu5Ac(b2-6)]GalNAc
# Summary of the method: as §1
# Gal(b1-4)Gal = target: Gal(b1-4)Gal
# Summary of the method: as §1
# [12] = target: Gal(b1-4)GalNAc(a1-3)[Fuc(a1-2)]Gal(b1-4)GlcNAc
# Summary of the method: as §1
# [13] = target: Gal(b1-4)GalNAc(b1-3)[Fuc(a1-2)]Gal(b1-4)GlcNAc
# Summary of the method: as §1
# Gal(b1-4)Glc = target: Gal(b1-4)Glc
# Summary of the method: as §1
# Gal(b1-4)Glc6S = target: Gal(b1-4)Glc6S
# Summary of the method: as §1
# Gal(b1-4)GlcNAc = target: Gal(b1-4)GlcNAc
# Summary of the method: as §1
# [14] = target: Gal(b1-4)GlcNAc(a1-6)Gal(b1-4)GlcNAc
# Summary of the method: as §1
# Gal(b1-4)GlcNAc(b1-2)Man = target: Gal(b1-4)GlcNAc(b1-2)Man
# Summary of the method: as §1
# [15] = target: Gal(b1-4)GlcNAc(b1-2)Man(a1-3)Man(b1-4)GlcNAc(b1-4)GlcNAc
# Summary of the method: as §1
# [16] = target: Gal(b1-4)GlcNAc(b1-2)Man(a1-3)[Gal(b1-4)GlcNAc(b1-2)Man(a1-6)]Man(b1-4)GlcNAc(b1-4)GlcNAc
# Summary of the method: as §1
# [17] = target: Gal(b1-4)GlcNAc(b1-2)Man(a1-3)[Gal(b1-4)GlcNAc(b1-2)Man(a1-6)]Man(b1-4)GlcNAc(b1-4)[Fuc(a1-6)]GlcNAc
# Summary of the method: as §1
# [18] = target: Gal(b1-4)GlcNAc(b1-2)Man(a1-3)[Gal(b1-4)GlcNAc(b1-2)Man(a1-6)][Gal(b1-4)GlcNAc(b1-4)]Man(b1-4)GlcNAc(b1-4)[Fuc(a1-6)]GlcNAc
# Summary of the method: as §1
# [19] = target: Gal(b1-4)GlcNAc(b1-2)Man(a1-3)[Gal(b1-4)GlcNAc(b1-2)Man(a1-6)][GlcNAc(b1-4)]Man(b1-4)GlcNAc(b1-4)[Fuc(a1-6)]GlcNAc
# Summary of the method: as §1
# [20] = target: Gal(b1-4)GlcNAc(b1-2)Man(a1-3)[GlcNAc(b1-2)Man(a1-6)]Man(b1-4)GlcNAc(b1-4)GlcNAc
# Summary of the method: as §1
# [21] = target: Gal(b1-4)GlcNAc(b1-2)Man(a1-3)[GlcNAc(b1-4)][Gal(b1-4)GlcNAc(b1-2)Man(a1-6)]Man(b1-4)GlcNAc(b1-4)GlcNAc
# Summary of the method: as §1
# [22] = target: Gal(b1-4)GlcNAc(b1-2)Man(a1-3)[Man(a1-6)]Man(b1-4)GlcNAc(b1-4)GlcNAc
# Summary of the method: as §1
# [23] = target: Gal(b1-4)GlcNAc(b1-2)Man(a1-6)Man(b1-4)GlcNAc(b1-4)GlcNAc
# Summary of the method: as §1
# [24] = target: Gal(b1-4)GlcNAc(b1-2)Man(a1-6)[GlcNAc(b1-2)Man(a1-3)]Man(b1-4)GlcNAc(b1-4)GlcNAc
# Summary of the method: as §1
# [25] = target: Gal(b1-4)GlcNAc(b1-2)Man(a1-6)[Man(a1-3)]Man(b1-4)GlcNAc(b1-4)GlcNAc
# Summary of the method: as §1
# [26] = target: Gal(b1-4)GlcNAc(b1-2)[Gal(b1-4)GlcNAc(b1-4)]Man(a1-3)[Gal(b1-4)GlcNAc(b1-2)Man(a1-6)]Man(b1-4)GlcNAc(b1-4)GlcNAc
# Summary of the method: as §1
# [27] = target: Gal(b1-4)GlcNAc(b1-2)[Gal(b1-4)GlcNAc(b1-4)]Man(a1-3)[Gal(b1-4)GlcNAc(b1-2)[Gal(b1-4)GlcNAc(b1-6)]Man(a1-6)]Man(b1-4)GlcNAc(b1-4)GlcNAc
# Summary of the method: as §1
# [28] = target: Gal(b1-4)GlcNAc(b1-2)[Gal(b1-4)GlcNAc(b1-4)]Man(a1-3)[GlcNAc(b1-4)][Gal(b1-4)GlcNAc(b1-2)Man(a1-6)]Man(b1-4)GlcNAc(b1-4)GlcNAc
# Summary of the method: as §1
# [29] = target: Gal(b1-4)GlcNAc(b1-2)[Gal(b1-4)GlcNAc(b1-4)]Man(a1-3)[GlcNAc(b1-4)][Gal(b1-4)GlcNAc(b1-2)[Gal(b1-4)GlcNAc(b1-6)]Man(a1-6)]Man(b1-4)GlcNAc(b1-4)GlcNAc
# Summary of the method: as §1
# [30] = target: Gal(b1-4)GlcNAc(b1-2)[Gal(b1-4)GlcNAc(b1-6)]Man(a1-6)[Gal(b1-4)GlcNAc(b1-2)Man(a1-3)]Man(b1-4)GlcNAc(b1-4)GlcNAc
# Summary of the method: as §1
# [31] = target: Gal(b1-4)GlcNAc(b1-2)[Gal(b1-4)GlcNAc(b1-6)]Man(a1-6)[Gal(b1-4)GlcNAc(b1-2)Man(a1-3)]Man(b1-4)GlcNAc(b1-4)[Fuc(a1-6)]GlcNAc
# Summary of the method: as §1
# [32] = target: Gal(b1-4)GlcNAc(b1-2)[Gal(b1-4)GlcNAc(b1-6)]Man(a1-6)[GlcNAc(b1-4)][Gal(b1-4)GlcNAc(b1-2)Man(a1-3)]Man(b1-4)GlcNAc(b1-4)GlcNAc
# Summary of the method: as §1
# [33] = target: Gal(b1-4)GlcNAc(b1-2)[Gal(b1-4)GlcNAc(b1-6)]Man(a1-6)[GlcNAc(b1-4)][Gal(b1-4)GlcNAc(b1-2)[Gal(b1-4)GlcNAc(b1-4)]Man(a1-3)]Man(b1-4)GlcNAc(b1-4)[Fuc(a1-6)]GlcNAc
# Summary of the method: as §1
# [34] = target: Gal(b1-4)GlcNAc(b1-3)Gal(b1-3)GalNAc
# Summary of the method: as §1
# [35] = target: Gal(b1-4)GlcNAc(b1-3)Gal(b1-3)GlcNAc
# Summary of the method: as §1
# [36] = target: Gal(b1-4)GlcNAc(b1-3)Gal(b1-4)Glc
# Summary of the method: as §1
# [37] = target: Gal(b1-4)GlcNAc(b1-3)Gal(b1-4)GlcNAc
# Summary of the method: as §1
# [38] = target: Gal(b1-4)GlcNAc(b1-3)Gal(b1-4)GlcNAc(b1-2)Man(a1-3)[Gal(b1-4)GlcNAc(b1-3)Gal(b1-4)GlcNAc(b1-2)Man(a1-6)]Man(b1-4)GlcNAc(b1-4)GlcNAc
# Summary of the method: as §1
# [39] = target: Gal(b1-4)GlcNAc(b1-3)Gal(b1-4)GlcNAc(b1-2)Man(a1-3)[Gal(b1-4)GlcNAc(b1-3)Gal(b1-4)GlcNAc(b1-2)Man(a1-6)]Man(b1-4)GlcNAc(b1-4)[Fuc(a1-6)]GlcNAc
# Summary of the method: as §1
binder,measurement,setting,value
CM2 (Cordyceps militaris) (protein) MEIAEQNVGKSCAIVNLIPPKEGSNIWTAKQVTIARNLPPNRGTGRHQIDWSFGPVKVTGYVDTTNWEIGVTVSIMGIDLGTVYGNLRDGVVLNVDLFLAKGQVRFYLKNGNEVWVHLSVEIRFDGKFEGDYKIITV,glycan array binding signal (z-score),[1],-0.296
same,glycan array binding signal (z-score),Gal(b1-3)GlcNAc6S,0.891
same,glycan array binding signal (z-score),[2],-0.977
same,glycan array binding signal (z-score),[3],0.854
same,glycan array binding signal (z-score),[4],0.551
same,glycan array binding signal (z-score),[5],-0.634
same,glycan array binding signal (z-score),[6],0.219
same,glycan array binding signal (z-score),[7],0.038
same,glycan array binding signal (z-score),[8],0.629
same,glycan array binding signal (z-score),[9],-0.79
same,glycan array binding signal (z-score),[10],0.195
same,glycan array binding signal (z-score),[11],0.422
same,glycan array binding signal (z-score),Gal(b1-4)Gal,-0.999
same,glycan array binding signal (z-score),[12],1.15
same,glycan array binding signal (z-score),[13],-0.887
same,glycan array binding signal (z-score),Gal(b1-4)Glc,-0.962
same,glycan array binding signal (z-score),Gal(b1-4)Glc6S,0.021
same,glycan array binding signal (z-score),Gal(b1-4)GlcNAc,-0.076
same,glycan array binding signal (z-score),[14],-0.357
same,glycan array binding signal (z-score),Gal(b1-4)GlcNAc(b1-2)Man,0.653
same,glycan array binding signal (z-score),[15],-0.676
same,glycan array binding signal (z-score),[16],-1.28
same,glycan array binding signal (z-score),[17],1.93
same,glycan array binding signal (z-score),[18],-1.68
same,glycan array binding signal (z-score),[19],-1.17
same,glycan array binding signal (z-score),[20],-0.159
same,glycan array binding signal (z-score),[21],-1.07
same,glycan array binding signal (z-score),[22],-1.19
same,glycan array binding signal (z-score),[23],-0.699
same,glycan array binding signal (z-score),[24],-0.767
same,glycan array binding signal (z-score),[25],0.512
same,glycan array binding signal (z-score),[26],-1.42
same,glycan array binding signal (z-score),[27],-0.541
same,glycan array binding signal (z-score),[28],0.043
same,glycan array binding signal (z-score),[29],-1.63
same,glycan array binding signal (z-score),[30],-0.245
same,glycan array binding signal (z-score),[31],-0.7
same,glycan array binding signal (z-score),[32],0.26
same,glycan array binding signal (z-score),[33],-0.752
same,glycan array binding signal (z-score),[34],0.081
same,glycan array binding signal (z-score),[35],1.33
same,glycan array binding signal (z-score),[36],-0.034
same,glycan array binding signal (z-score),[37],-0.507
same,glycan array binding signal (z-score),[38],1.33
same,glycan array binding signal (z-score),[39],0.545

# 3 entries from above, bar-delimited.
binder | measurement | setting | value
CM2 (Cordyceps militaris) (protein) MEIAEQNVGKSCAIVNLIPPKEGSNIWTAKQVTIARNLPPNRGTGRHQIDWSFGPVKVTGYVDTTNWEIGVTVSIMGIDLGTVYGNLRDGVVLNVDLFLAKGQVRFYLKNGNEVWVHLSVEIRFDGKFEGDYKIITV | glycan array binding signal (z-score) | [11] | 0.422
same | glycan array binding signal (z-score) | Gal(b1-4)Gal | -0.999
same | glycan array binding signal (z-score) | [36] | -0.034

# — the supplement of paper PMC8728848
